# Primary screen of a compound library

Amino acid sequences for entries named in this document (tags omitted). Residues count along the entry.
UniProt P9WPC5, whole entry: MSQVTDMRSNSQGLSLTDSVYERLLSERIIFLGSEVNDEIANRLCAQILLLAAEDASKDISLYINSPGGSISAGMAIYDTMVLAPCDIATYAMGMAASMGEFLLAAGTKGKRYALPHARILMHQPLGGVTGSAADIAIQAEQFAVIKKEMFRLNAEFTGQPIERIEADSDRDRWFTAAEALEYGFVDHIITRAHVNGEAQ
UniProt P9WPC3, whole entry partner: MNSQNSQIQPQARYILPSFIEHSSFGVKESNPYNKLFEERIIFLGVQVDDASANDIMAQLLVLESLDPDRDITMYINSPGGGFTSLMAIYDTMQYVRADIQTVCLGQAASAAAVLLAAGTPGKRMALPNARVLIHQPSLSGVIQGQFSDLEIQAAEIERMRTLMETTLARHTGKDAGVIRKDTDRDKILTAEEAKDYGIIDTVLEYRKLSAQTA
UniProt Q4DA54, 1-478: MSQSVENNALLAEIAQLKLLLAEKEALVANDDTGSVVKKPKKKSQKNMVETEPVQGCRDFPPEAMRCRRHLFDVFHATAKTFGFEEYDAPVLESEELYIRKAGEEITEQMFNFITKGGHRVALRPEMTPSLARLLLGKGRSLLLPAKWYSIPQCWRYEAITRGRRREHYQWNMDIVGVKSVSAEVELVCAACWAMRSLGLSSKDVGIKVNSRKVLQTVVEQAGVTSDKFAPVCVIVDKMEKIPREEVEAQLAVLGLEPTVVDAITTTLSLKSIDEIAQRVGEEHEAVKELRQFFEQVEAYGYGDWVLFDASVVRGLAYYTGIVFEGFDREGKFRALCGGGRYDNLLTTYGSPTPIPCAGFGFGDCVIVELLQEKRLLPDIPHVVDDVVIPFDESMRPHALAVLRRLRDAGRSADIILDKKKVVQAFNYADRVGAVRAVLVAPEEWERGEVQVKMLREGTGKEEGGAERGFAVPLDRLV
UniProt Q8IDJ8, 1-583: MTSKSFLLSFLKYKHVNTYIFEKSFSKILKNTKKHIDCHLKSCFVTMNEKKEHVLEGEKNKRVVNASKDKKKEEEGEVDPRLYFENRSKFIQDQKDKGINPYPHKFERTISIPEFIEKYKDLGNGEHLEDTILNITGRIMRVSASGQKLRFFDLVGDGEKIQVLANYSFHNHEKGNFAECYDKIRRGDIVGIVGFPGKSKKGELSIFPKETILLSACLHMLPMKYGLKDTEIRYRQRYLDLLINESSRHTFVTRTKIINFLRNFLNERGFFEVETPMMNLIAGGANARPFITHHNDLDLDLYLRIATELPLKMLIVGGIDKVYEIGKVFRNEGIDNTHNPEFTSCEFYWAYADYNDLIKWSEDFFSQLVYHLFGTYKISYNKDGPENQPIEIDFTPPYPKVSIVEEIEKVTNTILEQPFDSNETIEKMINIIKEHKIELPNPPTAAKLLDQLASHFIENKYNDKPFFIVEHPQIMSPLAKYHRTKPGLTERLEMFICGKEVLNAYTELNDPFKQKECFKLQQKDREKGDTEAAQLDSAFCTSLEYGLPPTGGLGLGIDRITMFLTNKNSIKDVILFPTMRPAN
UniProt P9WNZ1, whole entry: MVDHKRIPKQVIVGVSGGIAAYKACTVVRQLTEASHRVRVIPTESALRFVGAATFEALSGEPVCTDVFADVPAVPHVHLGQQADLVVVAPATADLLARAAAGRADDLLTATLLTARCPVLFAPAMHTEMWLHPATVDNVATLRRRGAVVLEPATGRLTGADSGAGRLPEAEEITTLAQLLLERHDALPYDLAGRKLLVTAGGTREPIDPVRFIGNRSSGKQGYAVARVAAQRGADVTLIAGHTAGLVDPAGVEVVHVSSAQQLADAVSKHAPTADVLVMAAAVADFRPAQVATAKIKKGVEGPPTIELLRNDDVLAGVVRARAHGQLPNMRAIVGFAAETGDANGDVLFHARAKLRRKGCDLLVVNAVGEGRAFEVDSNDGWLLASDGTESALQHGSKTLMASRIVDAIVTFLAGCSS
UniProt I6X8D2, whole entry: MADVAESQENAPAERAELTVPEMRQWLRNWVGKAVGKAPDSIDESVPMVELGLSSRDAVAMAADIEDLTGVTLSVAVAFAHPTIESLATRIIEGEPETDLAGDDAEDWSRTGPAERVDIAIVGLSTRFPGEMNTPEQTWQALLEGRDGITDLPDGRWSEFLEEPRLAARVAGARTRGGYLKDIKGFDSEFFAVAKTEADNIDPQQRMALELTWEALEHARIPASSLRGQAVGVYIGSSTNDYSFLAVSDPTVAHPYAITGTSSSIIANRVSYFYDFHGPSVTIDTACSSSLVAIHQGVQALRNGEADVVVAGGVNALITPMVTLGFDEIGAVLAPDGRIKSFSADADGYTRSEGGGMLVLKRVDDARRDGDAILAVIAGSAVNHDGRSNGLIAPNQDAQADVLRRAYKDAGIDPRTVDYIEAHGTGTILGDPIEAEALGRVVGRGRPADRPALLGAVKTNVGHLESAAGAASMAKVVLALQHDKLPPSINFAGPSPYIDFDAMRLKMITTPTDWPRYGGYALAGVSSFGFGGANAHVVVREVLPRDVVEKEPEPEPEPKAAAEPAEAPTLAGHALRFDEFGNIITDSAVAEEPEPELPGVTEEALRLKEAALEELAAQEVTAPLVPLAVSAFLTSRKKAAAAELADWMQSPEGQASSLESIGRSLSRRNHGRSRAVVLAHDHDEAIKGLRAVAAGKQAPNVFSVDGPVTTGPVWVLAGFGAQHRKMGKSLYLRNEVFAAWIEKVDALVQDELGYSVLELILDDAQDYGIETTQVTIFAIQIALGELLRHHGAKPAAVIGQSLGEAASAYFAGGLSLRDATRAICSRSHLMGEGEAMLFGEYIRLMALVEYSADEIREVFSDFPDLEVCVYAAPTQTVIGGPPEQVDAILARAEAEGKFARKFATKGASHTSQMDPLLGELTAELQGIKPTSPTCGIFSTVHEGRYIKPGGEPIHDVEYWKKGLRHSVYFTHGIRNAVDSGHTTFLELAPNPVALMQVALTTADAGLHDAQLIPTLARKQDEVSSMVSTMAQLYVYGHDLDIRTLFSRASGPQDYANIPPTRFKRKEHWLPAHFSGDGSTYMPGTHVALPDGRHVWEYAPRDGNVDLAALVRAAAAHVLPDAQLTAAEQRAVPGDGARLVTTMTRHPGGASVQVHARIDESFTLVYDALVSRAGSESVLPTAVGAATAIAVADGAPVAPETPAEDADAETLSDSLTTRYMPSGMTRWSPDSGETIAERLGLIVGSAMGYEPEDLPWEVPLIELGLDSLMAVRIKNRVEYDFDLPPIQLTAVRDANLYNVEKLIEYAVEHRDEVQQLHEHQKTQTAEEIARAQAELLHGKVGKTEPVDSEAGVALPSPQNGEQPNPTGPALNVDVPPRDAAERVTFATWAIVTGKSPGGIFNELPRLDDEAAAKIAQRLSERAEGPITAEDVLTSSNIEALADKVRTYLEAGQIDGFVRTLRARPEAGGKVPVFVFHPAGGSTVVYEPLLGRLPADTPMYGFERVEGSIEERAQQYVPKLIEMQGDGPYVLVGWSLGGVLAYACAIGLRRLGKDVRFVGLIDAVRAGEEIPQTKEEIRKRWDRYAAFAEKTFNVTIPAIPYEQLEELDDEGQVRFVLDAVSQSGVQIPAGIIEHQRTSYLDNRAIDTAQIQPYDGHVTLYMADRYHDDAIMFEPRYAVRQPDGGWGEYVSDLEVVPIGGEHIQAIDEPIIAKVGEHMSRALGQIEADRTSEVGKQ

Values are the deposited “Percent Effect”, in %. How 0% and 100% were set is not recorded. Most values in the screen are low, and negative values occur. The compounds are a random part of those screened. Two or more numbers in one place are separate tests of the same structure; such repeats can differ widely. A dash means the value is not listed here; it may have been measured.

A: 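Protease assay of ClpP1P2, read by the AMC dye that it sets free. Target: ClpP1P2, Mycobacterium tuberculosis (UniProt P9WPC5 and UniProt P9WPC3). Concentration: 50 µM. Direction is inferred from only a few compounds that gave an IC50; most scored high, so higher reads as stronger inhibition. Most other retested compounds had strongly negative values. Size under these conditions: about 69,000 compounds, about 10 of them at 50% or above in at least one test.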
B: 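Enzyme assay of histidyl-tRNA synthetase; the read-out is not stated. Target: Histidine-tRNA ligase, Trypanosoma cruzi CL Brener (UniProt Q4DA54). Compounds at 30 µM. The record gives no direction; compounds that gave an IC50 in retests scored well above the rest, so higher reads as stronger inhibition. Size under these conditions: about 69,000 compounds, about 31 of them at 50% or above in at least one test.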
C: 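Enzyme assay of the cytosolic lysyl-tRNA synthetase in 384-well plates, read by luminescence. Target: Lysine-tRNA ligase, Plasmodium falciparum 3D7 (UniProt Q8IDJ8). Tested at 30 µM. Higher reads as stronger inhibition, judged from the few compounds that gave an IC50. Size under these conditions: about 69,000 compounds, about 49 of them at 50% or above in at least one test.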
D: 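Coenzyme A biosynthesis protein CoaBC, Mycobacterium tuberculosis (UniProt P9WNZ1). Enzyme assay of CoaBC with a phosphate dye (Biomol Green) read at 650 nm. Tested at 30 µM. Higher reads as stronger inhibition, judged from the few compounds that gave an IC50. Most strong results did not repeat in a second test. Of about 67,000 compounds tested this way, about 40 (0.06%) reached 50% or more in at least one test.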
E: 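Cell assay of Leishmania donovani living inside macrophages; the read-out is not stated. Tested at 30 µM. Higher reads as stronger inhibition (inferred: compounds with an IC50 in retests scored well above the rest). Size under these conditions: about 69,000 compounds, about 1,000 of them at 50% or above in at least one test.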
F: 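Polyketide synthase Pks13, Mycobacterium tuberculosis (UniProt I6X8D2). Enzyme assay of the thioesterase domain of polyketide synthase 13; the read-out is not stated. Concentration: 30 µM. The record gives no direction; the compounds picked for IC50 retests had high values, so higher reads as stronger inhibition. Size under these conditions: about 67,000 compounds, about 300 of them at 50% or above in at least one test.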

| SMILES | A | B | C | D | E | F |
|---|---|---|---|---|---|---|
| `CNC(=O)c1cc(C2CCCN2)n[nH]1` (stereo not drawn) | -28.58 | 2.632 | -0.2899 | -2.331 | - | 0.7901 |
| `Cn1nc(C(=O)NCc2ccccc2C(F)(F)F)c2c1CCS(=O)(=O)C2` | 5.21 | 4.348 | 2.002 | 1.386 | 36.38 | -3.861 |
| `Cc1ccc(N2CCC3(CCN(C(=O)c4ccccn4)CC3)CC2)nn1.O=C(O)C(F)(F)F.O=C(O)C(F)(F)F` | - | - | - | - | 16.17 | - |
| `CC(C)=CCN1CC2(CCN(C(=O)CCn3ccnc3C)CC2)CC1=O` | -1.054 | 10.1 | 1.525 | 0.6734 | 13.02 | -10.23 |
| `N#Cc1cccnc1NCc1ccc(S(=O)(=O)NCC2CCCO2)cc1` (stereo not drawn) | 7.208 | 2.632 | -2.684 | - | -0.5322 | 14 |
| `CC(C)c1nn(C)c(N2CCOCC2)c1CNCCC(=O)N(C)C` | -10.41 | 3.812 | -2.55 | -3.947 | -14.9 | -29.84 |
| `c1ccc(CN2CCOC3(CCCN(c4nccs4)C3)C2)cc1` (stereo not drawn) | -22.33 | 6.863 | 4.785 | 4.235 | 14.65 | -23.08 |
| `COC1CC2(CCN(Cc3nccn3C)CC2)C1.O=C(O)C(F)(F)F` | - | - | - | - | 23.39 | - |
| `O=C(O)C(F)(F)F.[H][C@@]12CN(CC)C[C@]1([H])[C@H](OC)CCN2S(=O)(=O)c1ccccc1` | - | - | - | - | 33.8 | - |
| `O=C(O)C1(Cc2cc(-c3cccc(F)c3)no2)CCOCC1` | -4.267 | 1.622 | -0.2985 | -7.222 | 0.08962 | -38.51 |
| `O=C1CC2(CCN(Cc3cccs3)C2)CN1c1cccc(F)c1` (stereo not drawn) | -25.74 | 1.087 | 4.919 | 3.271 | 5.273 | -27.34 |
| `Cc1nc(N)nc(C)c1Cc1nc(C2CC2)n[nH]1` | -6.957 | 7.059 | 5.715 | -2.211 | 10.03 | -20.56 |
| `COCCN1CCOCC12CCN(C(=O)c1ccncc1)CC2` | 6.175 | 5.882 | -4.093 | 5.071 | - | -19.72 |
| `c1ccc(-c2nnn3c2COC(CNCC2CC2)C3)cc1` (stereo not drawn) | 7.31 | 12.24 | -0.2523 | 1.36 | 12.21 | -14.96 |
| `[H][C@@]12C[C@@H](OCC3CC3)CN1CCN(C(=O)c1cnccn1)C2` | - | - | - | - | -6.525 | - |
| `CC1(C(=O)NCCN2CCCCC2)CCCN1C(=O)c1ccccc1` (stereo not drawn) | 2.405 | 8.743 | 3.448 | -3.178 | 24.34 | -9.859 |
| `Cc1nc(C)n(CC2CCCN2Cc2nc(-c3ccco3)no2)n1` (stereo not drawn) | -12.03 | 1.183 | -0.9474 | 10.01 | 7.676 | -4.442 |
| `CC1CCCN(C(=O)c2cc(-c3ccco3)cs2)C1` (stereo not drawn) | 7.078 | 3.727 | 3.352 | 4.43 | 13.67 | 3.734 |
| `Cc1ccnc(OCC(=O)N2CCCC2)n1` | -6.794 | 8.543 | 0.8257 | 3.73 | -28.05 | -6.719 |
| `COCCN1CCC(CN(CC2CCCO2)C(=O)CNC(C)=O)CC1` (stereo not drawn) | -3.782 | -0.5025 | 3.873 | 1.564 | -15.09 | -1.745 |
| `Cc1cc2ccccc2n1CCC(=O)N1CCCCC1CCO` (stereo not drawn) | -3.593 | 0.8403 | 24.43 | 7.991 | 11.87 | -26.12 |
| `N#Cc1ccsc1N1CCC(Sc2ncc[nH]2)C1=O` (stereo not drawn) | -5.962 | 7 | 3.523 | 10.74 | -14.84 | -4.546 |
| `CC(=O)N1CCCC1c1nc(C)no1` (stereo not drawn) | 6.476 | 5.495 | -0.4693 | -2.67 | -16.45 and -19.73 | -19.49 |
| `CNS(=O)(=O)Cc1cccc(CNc2ccc(C#N)cn2)c1` | -1.429 | -0.5128 | 4.27 | 1.242 | 23.36 | -21.47 |
| `FC(F)(F)c1cc(C2CCNCC2)nc(-c2ccsc2)n1` | -0.7727 | 3.383 | 0.4882 | 5.128 | 3.687 | 2.648 |
| `C=C(C)COc1cccc(C(=O)NCCCc2nnn[nH]2)c1` | -6.081 | -0.4975 | -0.04657 | -1.728 | 15.2 | -8.971 |
| `O=C(Nc1ccccc1F)N(CCO)Cc1ccsc1` | 4.813 | 3.422 | -5.397 | -1.596 | -101.5 | -16.61 |
| `CC(=O)N1CCC2(C1)CN(C(=O)C1CCOC1)C2` (stereo not drawn) | -4.94 | 0.9709 | -2.598 | 3.99 | 10.71 | -5.862 |
| `COc1cc(F)ccc1C(C(=O)O)N(C)Cc1ccon1` (stereo not drawn) | 0.243 | 1.064 | -3.132 | 14.97 | -2.891 | -10.04 |
| `CCN1CC2(CCC1=O)CCN(CCc1nccn1C)CC2` | 2.746 | 6.579 | 6.262 | - | 33.15 | -29.65 |
| `CCOCCn1nc(C)cc1C(=O)N1CC[C@](C)(O)C(C)(C)C1` | 18.72 | -2.513 | 0.8457 | 5.669 | -12.54 | -15.6 |
| `Cc1ccc(N2CC3(COCCN(Cc4ccncc4)C3)OCC2=O)s1.O=C(O)C(F)(F)F.O=C(O)C(F)(F)F` (stereo not drawn) | - | - | - | - | -63.04 and -3.448 | - |
| `Cc1nc(CCCN2CCOCC2)n(Cc2ccc(F)cc2)n1` | -11.57 | 0.9662 | 1.628 | -2.857 | 15.06 | 4.295 |
| `CS(=O)(=O)c1cccc(S(=O)(=O)NCCCN2CCNC(=O)C2)c1` | -1.896 | 8.333 | 2.6 | 1.225 | 12.65 | -32.68 |
| `O=C1CO[C@H]2CN(C3CCOCC3)C[C@H]2N1Cc1ccccn1` | -5.482 | 2.174 | 2.85 | 14.35 | - | 4.718 |
| `CC(C)c1nc(C2CCCN2C(=O)c2cnc[nH]2)no1` (stereo not drawn) | 0.4533 | 2.682 | -2.143 | 4.722 | -18.63 | -17.07 |
| `CCc1nccn1C1CCCN(C(=O)c2cc(C3CC3)on2)C1` (stereo not drawn) | -11.16 | 1.667 | 0.7075 | 16.21 | -64.13 | 2.803 |
| `CN(Cc1nc(N)nc(N(C)C)n1)Cc1cccc2ccccc12` | -2.023 | 4.972 | 4.607 | 3.439 | 1.643 | -43.61 |

For reference, 4 entries once more:

SMILES	A	B	C	D	E	F
COCCN1CCOCC12CCN(C(=O)c1ccncc1)CC2	6.175	5.882	-4.093	5.071	-	-19.72
Cc1ccnc(OCC(=O)N2CCCC2)n1	-6.794	8.543	0.8257	3.73	-28.05	-6.719
O=C1CO[C@H]2CN(C3CCOCC3)C[C@H]2N1Cc1ccccn1	-5.482	2.174	2.85	14.35	-	4.718
Cc1nc(N)nc(C)c1Cc1nc(C2CC2)n[nH]1	-6.957	7.059	5.715	-2.211	10.03	-20.56

The values are deposited in ChEMBL (CHEMBL3988442, “University of Dundee, Small-Polar-MMV Screening Library” (2021)).